Source: patent publication US12109301B2, “Formulations, methods, and systems for treating genitourinary conditions” (Massachusetts Institute of Technology, priority 2017, dated 2024)
“Also recorded” adds a separate entry of the source. At least one compound was matched to its structure with a doubt left. Some of these results come from one statement about several compounds together.

Legend:
whole porcine ureters = assay: Bench top ex vivo model, phenylephrine-stimulated contractions, intraluminal delivery; design: species or system pig; conditions: for contractile activity of ureter (in words): 10 μM intraluminally, with 10 mM phenylephrine
Procedure: An ex vivo bench top model was designed to permit the testing of whole ureteral segments. Flow through the ureteral segments was regulated, and ranged from 0.25 mL/minute to 60 mL/minute. […] The intraluminal reservoirs contained either preheated saline buffer or dilutions of any candidate therapeutic agent.
The pounds per square inch (PSI) pressure readings were obtained using a fiber-optic pressure catheter.
For this test, a ureter was prepared through intraluminal delivery of saline (Krebs-Henseleit Buffer) (BUF) only (region “i”). The experiment then was initiated and phenylephrine [10 mM] was added to the Krebs infusion to stimulate baseline peristaltic contractions seen in patients with urinary stones (region “ii”). […] [1 μM]
Cumulative ureteral contractions were plotted over the course of the entire experiment, and are depicted at FIG. 8. For this test, a ureter was prepared through intraluminal delivery of saline (BUF) only (region “i”). The experiment was initiated and phenylephrine [10 mM] was added to the Krebs infusion to stimulate baseline peristaltic contractions seen in patients with urinary stones (region “ii”).

[1] = tested on: human ureteral smooth muscle cell (hUSMC); assay: High throughput screening (HTS) of hUSMC relaxation (p-MLC vs unphosphorylated MLC, single-cell analysis); type: cell-based; conditions: for relaxation of smooth muscle (in words): hUSMC, prolonged exposure (8 hours)
Text: An HTS test was developed to quantify the contractile state of a human ureteral smooth muscle cell (hUSMC). Quantification of hUSMC relaxation was achieved by performing single-cell analysis using a computer vision (CellProfiler, Broad Institute, MA) approach that related each cell's fluorescence intensity to its state of muscle relaxation (comparing phosphorylated myosin with unphosphorylated myosin).
Primary hUMSCs were harvested from patients and cultured. There were about 10,000 cells per well, and 100 μL of media per well. Each well represented one experiment, and 250 nL of drug per well was delivered with DMSO (0.25% DMSO by volume).
In the test of this example, single cell analysis was performed on each cell (identified via computer vision) after exposure to various drugs which enable relaxation in order to correlate each cell's contractile state to the therapeutic compound, exposure time, and dose.
These correlations were determined by analyzing the fluorescent intensity of smooth muscle cells, which is related to the contractile state of the muscles. When a smooth muscle cell is signaled to contract, phosphorylation of myosin light-chain (p-MLC) occurs, which is a biomarker of muscle contraction. Conversely, when smooth muscle is left unphosphorylated (MLC), muscle relaxation occurs. Therefore, smooth muscle contraction can be computed from the proportion of p-MLC to unphosphorylated-MLC.
The tested agents included those in the following table.

Compound: COC(=O)C1=C(C)NC(C)=C(C(=O)OC)C1c1ccccc1[N+](=O)[O-] [Nifedipine]
- contractile activity of ureter (in words) (whole porcine ureters): rapid cessation of contractions
- contractile activity of ureter (in words) (whole porcine ureters; listed as nifedipine): complete cessation of contractile activity
- effect after removal from the infusion (region iv) (whole porcine ureters; phenylephrine 10 mM and saline buffer continued): the effects were reversed

Compound: CCCc1nc(C)c2c(=O)[nH]c(-c3cc(S(=O)(=O)N4CCN(CC)CC4)ccc3OCC)nn12 [Vardenafil]
- relaxation of smooth muscle (in words) [1]: demonstrated efficacy at certain doses

Compound: C[C@@H](N)[C@H]1CC[C@H](C(=O)Nc2ccncc2)CC1 [Y-27632]
- relaxation of smooth muscle cells within a cell population ([1]; 25 μM, 8 hour exposure): greater than 40%

Compound: Cc1ccc(-c2cc(C(F)(F)F)nn2-c2ccc(S(N)(=O)=O)cc2)cc1 [Celecoxib]
- relaxation of smooth muscle (in words) [1]: significant relaxation of smooth muscle; also recorded: relatively significant cell relaxation
